No constants are given. Whether binding was seen depends on the method and setting. Some entries that bind do so weakly or less than the wild type.
B1: T8# (antibody, V domains shown)
VH: EVQLVESGGGLVQPGGSLRLSCAASGFTFSRFDMSWIRQPPGKGLEWVGFIGGGGGRTHYPDAVKGRFTISRDDSKNSLYLQMNSLKTEDTAVYYCARHGTGTGAMDYWGQGTLVTVSS
VL: ETTLTQSPAFMSATPGDKVNISCRASKSVDNYGYSFMHWYQQKPGQPPKLLIYRNANLASGIPARFSGSGSGTEFTLTISSLQSEDFAVYYCQQSNEDPTFGGGTKLEIK
B2: T68# (antibody, V domains shown)
VH: EVQLVESGGGLVQPGGSLRLSCVASGFTFSRFDMSWVRQVPGKGLEWMGFIGGGGGRTHYPDAVKGRFTISRDDSKNSLYLQMNSLKTEDTAVYYCARHGIGTGAMDYWGQGTLVTVSS
VL: ETTLTQSPAFMSATPGDEVNISCRASKSVDNYGYSFMHWYQQKPGQAPRLLIYRSANLASGVPDRFSGSGSGTDFTLTISSLQAEDVAVYYCQQSNEDPTFGGGTKVEIK
B3: T77# (antibody, V domains shown)
VH: EVQLLESGGGLVQPGGSLRLSCAASGFTFSRFDMSWVRQAPGKGLEWVGFIGGGGGRTHYPDAVKGRFTISRDDSKNSLYLQMNSLKTEDTAVYYCARHGTGTGAMDYWGQGTLVTVSS
VL: ETTLTQSPAFMSATPGDKVNISCRASKSVDNYGYSFMHWYQQKPGQAPRLLIYRSANLASGVPDRFSGSGSGTDFTLTISSLQAEDVAVYYCQQSNEDPTFGGGTKVEIK
B4: T79# (antibody, V domains shown)
VH: EVQLVESGGGLIQPGGSLRLSCAASGFTFSRFDMSWVRQAPGKGLEWIGFIGGGGGRTHYPDAVKGRFTISRDDSKNSLYLQMNSLKTEDTAVYYCARHGTGTGAMDYWGQGTLVTVSS
VL: AIRMTQSPDSLAVSLGERATINCRASKSVDNYGYSFMHWYQQKPGQAPRLLIYRSANLASGVPSRFSGSGSGTDFTLTINSLEAEDAATYYCQQSNEDPTFGGGTKVEIK

Amino acid sequences for entries named in this document (tags omitted). Residues count along the entry.
UniProt Q15116, residues 25-167: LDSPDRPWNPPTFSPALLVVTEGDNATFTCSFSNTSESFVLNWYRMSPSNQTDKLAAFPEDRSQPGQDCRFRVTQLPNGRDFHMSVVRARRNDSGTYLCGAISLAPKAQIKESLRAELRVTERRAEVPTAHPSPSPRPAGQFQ

The binders below were run against 抗原人源PD-1蛋白 (human) (UniProt Q15116) (assay: ELISA of humanised Fab phage clones on PD-1 antigen).
For B1, the binding was “binds”.
B2 was tested, and the binding was “binds”.
For B3, the binding was “binds”.
B4 was tested, and the binding was “binds”.
